# Results as given in the supplement of paper PMC8728848.
# This is one part of the list.
# B1: Drgal1 (Danio rerio) (protein)
# chain: MAGVLIQNMSFKVGQTLTITGVPKPDSTNFAINIGHSPEDIALHMNPRFDAHGDQCTIVCNSFQSGSWCEEHRDDNFPFIQDKEFQIKITFTNEEFLVTLPDGSEIHFPNRQGSEKYKYMYFEGEVRIQGVEIK
# Assays:
# Assay in all cases: glycan array binding signal (z-score within array); higher = stronger binding
# Conditions in all cases: glycan notation: IUPAC condensed, linker removed
# [1] = molecular target: Neu5Ac(a2-3)Gal(b1-4)GlcNAc(b1-3)GalNAc
# How it was run: (§1)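 The binding signal is a Z-score computed within each array. Data were drawn from 3228 arrays in the Consortium for Functional Glycomics database, restricted to those with a known protein sequence. Scores were averaged over arrays of the same protein sequence at different concentrations or buffers, and over linkers, and negative values can be taken as non-binding.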
# [2] = molecular target: Neu5Ac(a2-3)Gal(b1-4)GlcNAc(b1-3)[Neu5Ac(a2-3)Gal(b1-4)GlcNAc(b1-6)]GalNAc
# How it was run: as §1
# [3] = molecular target: Neu5Ac(a2-3)Gal(b1-4)GlcNAc(b1-6)GalNAc
# How it was run: as §1
# [4] = molecular target: Neu5Ac(a2-3)Gal(b1-4)GlcNAc(b1-6)[Gal(b1-3)]GalNAc
# How it was run: as §1
# [5] = molecular target: Neu5Ac(a2-3)Gal(b1-4)GlcNAc(b1-6)[Neu5Ac(a2-3)Gal(b1-3)]GalNAc
# How it was run: as §1
# [6] = molecular target: Neu5Ac(a2-3)Gal(b1-4)GlcNAc6S
# How it was run: as §1
# [7] = molecular target: Neu5Ac(a2-3)Gal(b1-4)[Fuc(a1-3)]GlcNAc
# How it was run: as §1
# [8] = molecular target: Neu5Ac(a2-3)Gal(b1-4)[Fuc(a1-3)]GlcNAc(b1-2)Man
# How it was run: as §1
# [9] = molecular target: Neu5Ac(a2-3)Gal(b1-4)[Fuc(a1-3)]GlcNAc(b1-3)Gal
# How it was run: as §1
# [10] = molecular target: Neu5Ac(a2-3)Gal(b1-4)[Fuc(a1-3)]GlcNAc(b1-3)Gal(b1-4)GlcNAc
# How it was run: as §1
# [11] = molecular target: Neu5Ac(a2-3)Gal(b1-4)[Fuc(a1-3)]GlcNAc(b1-3)Gal(b1-4)[Fuc(a1-3)]GlcNAc(b1-3)Gal(b1-4)[Fuc(a1-3)]GlcNAc
# How it was run: as §1
# [12] = molecular target: Neu5Ac(a2-3)Gal(b1-4)[Fuc(a1-3)]GlcNAc(b1-3)GalNAc
# How it was run: as §1
# [13] = molecular target: Neu5Ac(a2-3)Gal(b1-4)[Fuc(a1-3)]GlcNAc(b1-6)[Gal(b1-3)]GalNAc
# How it was run: as §1
# [14] = molecular target: Neu5Ac(a2-3)Gal(b1-4)[Fuc(a1-3)]GlcNAc(b1-6)[Neu5Ac(a2-3)Gal(b1-3)]GalNAc
# How it was run: as §1
# [15] = molecular target: Neu5Ac(a2-3)Gal(b1-4)[Fuc(a1-3)]GlcNAc6S
# How it was run: as §1
# [16] = molecular target: Neu5Ac(a2-3)Gal6S(b1-4)GlcNAc
# How it was run: as §1
# [17] = molecular target: Neu5Ac(a2-3)Gal6S(b1-4)[Fuc(a1-3)]GlcNAc
# How it was run: as §1
# Neu5Ac(a2-3)GalNAc = molecular target: Neu5Ac(a2-3)GalNAc
# How it was run: as §1
# [18] = molecular target: Neu5Ac(a2-3)GalNAc(b1-4)GlcNAc
# How it was run: as §1
# [19] = molecular target: Neu5Ac(a2-3)[GalNAc(b1-4)]Gal(b1-4)Glc
# How it was run: as §1
# [20] = molecular target: Neu5Ac(a2-3)[GalNAc(b1-4)]Gal(b1-4)GlcNAc
# How it was run: as §1
# [21] = molecular target: Neu5Ac(a2-3)[GalNAc(b1-4)]Gal(b1-4)GlcNAc(b1-3)GalNAc
# How it was run: as §1
# [22] = molecular target: Neu5Ac(a2-3)[Neu5Ac(a2-6)]GalNAc
# How it was run: as §1
# Neu5Ac(a2-6)Gal = molecular target: Neu5Ac(a2-6)Gal
# How it was run: as §1
# [23] = molecular target: Neu5Ac(a2-6)Gal(b1-3)GlcNAc(b1-3)[Gal(b1-4)GlcNAc(b1-6)]Gal(b1-4)Glc
# How it was run: as §1
# Neu5Ac(a2-6)Gal(b1-4)Glc = molecular target: Neu5Ac(a2-6)Gal(b1-4)Glc
# How it was run: as §1
# [24] = molecular target: Neu5Ac(a2-6)Gal(b1-4)GlcNAc
# How it was run: as §1
# [25] = molecular target: Neu5Ac(a2-6)Gal(b1-4)GlcNAc(b1-2)Man
# How it was run: as §1
# [26] = molecular target: Neu5Ac(a2-6)Gal(b1-4)GlcNAc(b1-2)Man(a1-3)Man(b1-4)GlcNAc(b1-4)GlcNAc
# How it was run: as §1
# [27] = molecular target: Neu5Ac(a2-6)Gal(b1-4)GlcNAc(b1-2)Man(a1-3)[Gal(b1-4)GlcNAc(b1-2)Man(a1-6)]Man(b1-4)GlcNAc(b1-4)GlcNAc
# How it was run: as §1
# [28] = molecular target: Neu5Ac(a2-6)Gal(b1-4)GlcNAc(b1-2)Man(a1-3)[GlcNAc(b1-2)Man(a1-6)]Man(b1-4)GlcNAc(b1-4)GlcNAc
# How it was run: as §1
# [29] = molecular target: Neu5Ac(a2-6)Gal(b1-4)GlcNAc(b1-2)Man(a1-3)[GlcNAc(b1-4)][Neu5Ac(a2-6)Gal(b1-4)GlcNAc(b1-2)Man(a1-6)]Man(b1-4)GlcNAc(b1-4)GlcNAc
# How it was run: as §1
# [30] = molecular target: Neu5Ac(a2-6)Gal(b1-4)GlcNAc(b1-2)Man(a1-3)[Man(a1-6)]Man(b1-4)GlcNAc(b1-4)GlcNAc
# How it was run: as §1
# [31] = molecular target: Neu5Ac(a2-6)Gal(b1-4)GlcNAc(b1-2)Man(a1-3)[Neu5Ac(a2-3)Gal(b1-4)GlcNAc(b1-2)Man(a1-6)]Man(b1-4)GlcNAc(b1-4)GlcNAc
# How it was run: as §1
# [32] = molecular target: Neu5Ac(a2-6)Gal(b1-4)GlcNAc(b1-2)Man(a1-3)[Neu5Ac(a2-6)Gal(b1-4)GlcNAc(b1-2)Man(a1-6)]Man(b1-4)GlcNAc(b1-4)GlcNAc
# How it was run: as §1
# [33] = molecular target: Neu5Ac(a2-6)Gal(b1-4)GlcNAc(b1-2)Man(a1-3)[Neu5Ac(a2-6)Gal(b1-4)GlcNAc(b1-2)Man(a1-6)]Man(b1-4)GlcNAc(b1-4)[Fuc(a1-6)]GlcNAc
# How it was run: as §1
# [34] = molecular target: Neu5Ac(a2-6)Gal(b1-4)GlcNAc(b1-2)Man(a1-6)Man(b1-4)GlcNAc(b1-4)GlcNAc
# How it was run: as §1
# [35] = molecular target: Neu5Ac(a2-6)Gal(b1-4)GlcNAc(b1-2)Man(a1-6)[Gal(b1-4)GlcNAc(b1-2)Man(a1-3)]Man(b1-4)GlcNAc(b1-4)GlcNAc
# How it was run: as §1
# [36] = molecular target: Neu5Ac(a2-6)Gal(b1-4)GlcNAc(b1-2)Man(a1-6)[GlcNAc(b1-2)Man(a1-3)]Man(b1-4)GlcNAc(b1-4)GlcNAc
# How it was run: as §1
# [37] = molecular target: Neu5Ac(a2-6)Gal(b1-4)GlcNAc(b1-2)Man(a1-6)[Man(a1-3)]Man(b1-4)GlcNAc(b1-4)GlcNAc
# How it was run: as §1
# [38] = molecular target: Neu5Ac(a2-6)Gal(b1-4)GlcNAc(b1-2)[Neu5Ac(a2-6)Gal(b1-4)GlcNAc(b1-4)]Man(a1-3)[GlcNAc(b1-4)][Neu5Ac(a2-6)Gal(b1-4)GlcNAc(b1-2)[Neu5Ac(a2-6)Gal(b1-4)GlcNAc(b1-6)]Man(a1-6)]Man(b1-4)GlcNAc(b1-4)GlcNAc
# How it was run: as §1
# [39] = molecular target: Neu5Ac(a2-6)Gal(b1-4)GlcNAc(b1-2)[Neu5Ac(a2-6)Gal(b1-4)GlcNAc(b1-4)]Man(a1-3)[GlcNAc(b1-4)][Neu5Ac(a2-6)Gal(b1-4)GlcNAc(b1-4)Man(a1-6)]Man(b1-4)GlcNAc(b1-4)GlcNAc
# How it was run: as §1
# [40] = molecular target: Neu5Ac(a2-6)Gal(b1-4)GlcNAc(b1-2)[Neu5Ac(a2-6)Gal(b1-4)GlcNAc(b1-6)]Man(a1-6)[Neu5Ac(a2-6)Gal(b1-4)GlcNAc(b1-2)Man(a1-3)][GlcNAc(b1-4)]Man(b1-4)GlcNAc(b1-4)GlcNAc
# How it was run: as §1
# [41] = molecular target: Neu5Ac(a2-6)Gal(b1-4)GlcNAc(b1-3)Gal(b1-3)GlcNAc
# How it was run: as §1
# [42] = molecular target: Neu5Ac(a2-6)Gal(b1-4)GlcNAc(b1-3)Gal(b1-4)GlcNAc
# How it was run: as §1
binder,measurement,setting,value
B1,glycan array binding signal (z-score),[1],0.164
same,glycan array binding signal (z-score),[2],0.152
same,glycan array binding signal (z-score),[3],-0.099
same,glycan array binding signal (z-score),[4],0.539
same,glycan array binding signal (z-score),[5],-0.825
same,glycan array binding signal (z-score),[6],-0.362
same,glycan array binding signal (z-score),[7],-0.689
same,glycan array binding signal (z-score),[8],-0.502
same,glycan array binding signal (z-score),[9],-0.059
same,glycan array binding signal (z-score),[10],0.135
same,glycan array binding signal (z-score),[11],-0.239
same,glycan array binding signal (z-score),[12],5.78
same,glycan array binding signal (z-score),[13],0.126
same,glycan array binding signal (z-score),[14],-0.233
same,glycan array binding signal (z-score),[15],-0.162
same,glycan array binding signal (z-score),[16],-0.469
same,glycan array binding signal (z-score),[17],-0.766
same,glycan array binding signal (z-score),Neu5Ac(a2-3)GalNAc,-0.59
same,glycan array binding signal (z-score),[18],-0.657
same,glycan array binding signal (z-score),[19],-0.429
same,glycan array binding signal (z-score),[20],-0.515
same,glycan array binding signal (z-score),[21],-0.314
same,glycan array binding signal (z-score),[22],-0.569
same,glycan array binding signal (z-score),Neu5Ac(a2-6)Gal,-0.108
same,glycan array binding signal (z-score),[23],-0.166
same,glycan array binding signal (z-score),Neu5Ac(a2-6)Gal(b1-4)Glc,-0.154
same,glycan array binding signal (z-score),[24],-0.081
same,glycan array binding signal (z-score),[25],-0.396
same,glycan array binding signal (z-score),[26],0.535
same,glycan array binding signal (z-score),[27],-0.382
same,glycan array binding signal (z-score),[28],-0.699
same,glycan array binding signal (z-score),[29],-0.418
same,glycan array binding signal (z-score),[30],-0.049
same,glycan array binding signal (z-score),[31],0.079
same,glycan array binding signal (z-score),[32],0.521
same,glycan array binding signal (z-score),[33],0.431
same,glycan array binding signal (z-score),[34],0.046
same,glycan array binding signal (z-score),[35],-0.271
same,glycan array binding signal (z-score),[36],-0.248
same,glycan array binding signal (z-score),[37],-0.533
same,glycan array binding signal (z-score),[38],-0.371
same,glycan array binding signal (z-score),[39],-0.106
same,glycan array binding signal (z-score),[40],-0.669
same,glycan array binding signal (z-score),[41],0.001
same,glycan array binding signal (z-score),[42],-0.318

# For reference, some entries already given.
binder,measurement,setting,value
B1,glycan array binding signal (z-score),[21],-0.314
same,glycan array binding signal (z-score),[22],-0.569
